These are yes or no findings as the source states them, for the method shown. For some of these results: Binding seen in cells or lysates may run through a third protein. Some binding calls cover weakened binding; strength is not graded here. For some of these results: Tags and fused reporters may be left off the sequences shown. Blank lines part the entries; values can stand above or below the molecule they belong to.
Columns and labels:
[1] = target: EWSR1 (in NB4 cells) (human (endogenous in NB4)) (UniProt Q01844); test: immunoblot of EWSR1 oligomers; Western blot for EWSR1 oligomerization in NB4 cells treated with HHT at different concentrations
[2] = target: EWSR1 fused at its C-terminal region to a split mVenus fragment (EWSR1-VN and EWSR1-VC) (human) (UniProt Q01844); test: split reporter; BiFC with mVenus fragments VN1-173 and VC155-238; HEK293T cells co-transfected with EWSR1-VN and EWSR1-VC, fixed after 24 h, confocal microscopy; with or without HHT
[3] = target: T1, myc-tagged YTH domain of YTHDF2 (YTH^YHTDF2-myc) (UniProt Q9Y5A9); test: co-IP; HEK293T cells cotransfected with constructs of EWSR1 (HA) and YTH-myc; cell extracts IP with anti-Myc antibodies, HA detected by blot
T1 sequence: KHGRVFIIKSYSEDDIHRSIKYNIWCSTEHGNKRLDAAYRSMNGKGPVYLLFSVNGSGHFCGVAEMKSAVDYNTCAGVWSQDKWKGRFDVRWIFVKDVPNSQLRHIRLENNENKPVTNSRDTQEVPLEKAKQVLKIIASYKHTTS

The chains behind the UniProt entries cited, without tags or fusion partners. Where a name states a change or a piece, a line headed by the entry shows the natural chain unless it says otherwise.
UniProt Q01844: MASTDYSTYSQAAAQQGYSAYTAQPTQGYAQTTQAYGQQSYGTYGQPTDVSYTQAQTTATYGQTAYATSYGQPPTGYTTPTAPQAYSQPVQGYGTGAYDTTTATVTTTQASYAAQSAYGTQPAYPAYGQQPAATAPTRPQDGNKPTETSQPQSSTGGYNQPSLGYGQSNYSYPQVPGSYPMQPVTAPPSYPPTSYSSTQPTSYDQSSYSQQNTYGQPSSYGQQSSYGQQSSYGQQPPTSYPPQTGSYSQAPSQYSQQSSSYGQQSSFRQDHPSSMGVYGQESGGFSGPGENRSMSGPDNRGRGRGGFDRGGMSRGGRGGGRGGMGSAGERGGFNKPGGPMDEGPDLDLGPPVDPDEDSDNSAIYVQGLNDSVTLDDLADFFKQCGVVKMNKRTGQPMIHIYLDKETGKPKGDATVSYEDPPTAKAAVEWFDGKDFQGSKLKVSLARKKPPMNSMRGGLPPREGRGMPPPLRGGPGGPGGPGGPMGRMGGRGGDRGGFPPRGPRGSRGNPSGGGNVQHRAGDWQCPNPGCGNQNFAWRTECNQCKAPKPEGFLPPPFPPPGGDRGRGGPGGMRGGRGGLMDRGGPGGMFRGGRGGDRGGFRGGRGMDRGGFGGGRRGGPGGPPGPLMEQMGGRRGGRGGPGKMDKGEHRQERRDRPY

[4] = target: HA-tagged full-length EWSR1 (HA-EWSR1) (human) (UniProt Q01844); test: co-IP; HEK293T cells transfected with HA-EWSR1 (with YTH-myc where named), with or without HHT; NP40 lysate, IP with anti-HA (HA-tag magnetic beads), western blot

Molecule: HA-tagged C-terminal region of EWSR1 (HA-EWSR1-C, amino acids 301-656) (from UniProt Q01844 301-656) (domain or fragment)
binding [3]: binds

B1: myc-tagged YTH domain of YTHDF2 (YTH^YHTDF2-myc) (domain or fragment, UniProt Q9Y5A9 408-552)
chain: T1 sequence
binding [4]: binds

Continued, values first:

binding [1]: binds
Molecule: EWSR1 (in NB4 cells) (from UniProt Q01844 1-656)

binding [2]: binds
Molecule: EWSR1 fused at its C-terminal region to a split mVenus fragment (EWSR1-VN and EWSR1-VC) (from UniProt Q01844 1-656)

Reference: article PMC12747546, “Homoharringtonine suppresses acute myeloid leukemia progression by orchestrating EWSR1 phase separation in an m^6A‐YTHDF2‐dependent mechanism” (iMeta, 2025)
